Reference: the supplement of paper PMC5949888
Most values lie at the floor of the assay. Slopes are relative: functional sequences can read slightly below zero.

tested on: Saccharomyces cerevisiae PS128 hsf1 delta, HSF1(1-493) fusion; experiment: growth estimate (transactivation domain function in HSF1 fusion, heat-shock survival) (a.u. (slope of normalised read count over time)); higher = stronger growth at 37°C, i.e. more transactivation activity; conditions: library: random library
Method: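 Random 60-nt DNA library encoding peptides of up to 20 aa, fused to the C-terminus of yeast HSF1 residues 1-493 (C-terminal TAD deleted) and expressed from the native HSF1 promoter on a CEN plasmid in hsf1-deleted S. cerevisiae PS128. Cells were selected at 37°C on -trp 5-FOA plates for 0, 2, 4, 6 and 8 days and amplicons were sequenced. Growth estimate is the slope of a robust linear fit of total-sum-normalised read counts (normalised to the first time point) over time, using at least 2 replicates. Sequences are classed functional (TAD activity) above a threshold of -0.13, set from stop-codon control sequences.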

| Substance | growth estimate |
| --- | --- |
| SKKKLSRRVGNKVTGARRVR | < -0.25 |
| WKAGSRHGSLTRGSLFL | < -0.25 |
| YDKQLRGALKKQQVLPEAKS | -0.246 |
| GRNPNGPQSEIPTAPVTGKC | < -0.25 |
| LPGNLLQ | < -0.25 |
| FLCKRGLRPSSLYTSKLYLE | < -0.25 |
| SAGDQCVGGGPWLRPLSRRA | < -0.25 |
| YAKVGLRPALRSFGLYHWPI | < -0.25 |
| GNLSCTWRGSLASM | < -0.25 |
| KQCSAKLLMHMVGFASLMGF | < -0.25 |
| FPVLLGTGLSYPSCHS | < -0.25 |
| QPCFGARVLRLRVTLYDSRT | < -0.25 |
| KANPRIFQLRKDCLQACCCT | < -0.25 |
| HWGIETRLYRWPGCRGSRAR | < -0.25 |
| IRATGGLVCSSGVTPDMLST | < -0.25 |
| VRVHFGPIPDIKQASKKHPE | < -0.25 |
| ISIGLSATRRG | < -0.25 |
| KEW | < -0.25 |
| VKGEIALCGSIVYESGYTCK | < -0.25 |
| GLFDKGPVVLGP | < -0.25 |
| EGQHSISYQCERLKDWVPDK | < -0.25 |
| GTLGGYKSRARRSQYGTTGI | < -0.25 |
| ASQETRVRPGKRAYFLPVVE | < -0.25 |
| RRFSNQTRKCIRVHIQIYGG | < -0.25 |
| SHVEAQVQVLHLWLTLDVRN | < -0.25 |
| RRVY | -0.0574 |

| Substance | growth estimate |
| --- | --- |
| IPSY | < -0.25 |
| IAG | < -0.25 |
| NAIRCT | < -0.25 |
| CVYLITTEEEATS | < -0.25 |
| RSSLMWLNGINHSVRRPIWS | < -0.25 |
| VEYWFPNSCWDGCIGRGA | -0.163 |
| GLHVRARRVP | < -0.25 |
| TVTICRATSPGLVKNPLPRV | < -0.25 |
| TSPGCMDTVTLYEPKHSSHD | < -0.25 |
| MVAKPLQVNKSRNSMEGSYA | < -0.25 |
| RWRISVRL | < -0.25 |
| LRKFVTITRPL | < -0.25 |
| ELGCCRRSSPRIYCARVVGF | < -0.25 |
| GSGCPFLHVCVPPHCVTAPT | < -0.25 |
| DHFRHGKSWWTVNWSECVCS | < -0.25 |
| GNLNHVRQHMRYLVGIFPSA | < -0.25 |
| VPYR | < -0.25 |
| STLEYRGTDTR | < -0.25 |
| QRQYGRGLSLRLGYIMALNG | < -0.25 |
| SSSFRAEDTANRCCPDIRAS | < -0.25 |
| GKTCSTSYYKAPGHSTEPGV | < -0.25 |
| TYCSLR | < -0.25 |
| GPKSLSSLVFGWPSVPT | < -0.25 |
| AEGAAKPVNSKTNKRWGLVW | < -0.25 |
| VLTRND | < -0.25 |
| RDQRLGYGITLRCRLVLDDW | < -0.25 |

| Substance | growth estimate |
| --- | --- |
| LYWGAILDASRLLKTLPLST | < -0.25 |
| SRWLAPVKLPTGTNGQVRLD | < -0.25 |
| CNMSGTS | < -0.25 |
| FDLPVTLNDFVQNNGGGART | < -0.25 |
| TNRVDPPEGPKRRRHSR | -0.243 |
| PEMFCTVCCTLDRYNARKIT | < -0.25 |
| LNDPRGTLSF | < -0.25 |
| SRKMLKQVRASRCVDGV | < -0.25 |
| KQDSTSSVSAKMTAQRCIGL | < -0.25 |
| LRTVVICF | < -0.25 |
| SSSANRTG | < -0.25 |
| PASH | -0.245 |
| LSDLVYLGNYAWCAHGPQRP | < -0.25 |
| AVCPNRL | < -0.25 |
| LQIYSRPDSRIVPNGLVMRL | < -0.25 |
| FLRLVSALA | < -0.25 |
| RQMPRGERGFMNLTWSASER | -0.245 |
| RYRVGLPIRYSADAIGRPDV | < -0.25 |
| PYTWVIRGLPPIGARIPDSV | < -0.25 |
| LTLHEGSTRGSL | < -0.25 |
| GVVL | < -0.25 |
| LKDTRTPCQG | < -0.25 |
| HVVSCVLLIPVKSFPPLGHL | < -0.25 |
| GNL | < -0.25 |
| RTPLSQY | < -0.25 |
| RSVL | < -0.25 |

| Substance | growth estimate |
| --- | --- |
| PGSAPDRLEILIAGWGS | < -0.25 |
| ACM | < -0.25 |
| MVEGAVILNQARVGRRQREI | -0.25 |
| PELAGLAVSCPTGWSREALR | < -0.25 |
| QPCRHG | < -0.25 |
| GFTEPWARSASVTFPSVFIT | < -0.25 |
| VGSEWTLGTKNWVAAPRNSL | < -0.25 |
| LATCILVSEA | < -0.25 |
| HFLSLHDRGVPWYRPIKLLV | < -0.25 |
| RTQ | < -0.25 |
| YKLFTHVRRARS | < -0.25 |
| TNPT | < -0.25 |
| SEPLSRVSERRNVTCQ | < -0.25 |
| PKYLLLHYEA | -0.209 |
| CCMGRIAL | < -0.25 |
| PHSDSDARRVLPYLTTAL | < -0.25 |
| SEASGREDA | -0.25 |
| GQAPRPKGSASVATGTETGE | < -0.25 |
| HMQQTSL | < -0.25 |
| RIGWGCIGIRCDAAVC | < -0.25 |
| GLPLETWRNG | < -0.25 |
| DPWAGSRHQVYVTSGSSD | < -0.25 |
| RILMGSLNSILGSITSLLGP | < -0.25 |
| RSVRCWLHAGMFVTRGYGS | < -0.25 |
| IRFGILPTSDSPVRSTNDQD | 0.0413 |
| GCQYMMVTSDSLCTQ | < -0.25 |

Taken from the listing for reference:

| Substance | growth estimate |
| --- | --- |
| TVTICRATSPGLVKNPLPRV | < -0.25 |
| TSPGCMDTVTLYEPKHSSHD | < -0.25 |
| MVAKPLQVNKSRNSMEGSYA | < -0.25 |
| RWRISVRL | < -0.25 |
| LRKFVTITRPL | < -0.25 |
| ELGCCRRSSPRIYCARVVGF | < -0.25 |
| GSGCPFLHVCVPPHCVTAPT | < -0.25 |
| DHFRHGKSWWTVNWSECVCS | < -0.25 |
| GNLNHVRQHMRYLVGIFPSA | < -0.25 |
| VPYR | < -0.25 |
| STLEYRGTDTR | < -0.25 |
| QRQYGRGLSLRLGYIMALNG | < -0.25 |
| SSSFRAEDTANRCCPDIRAS | < -0.25 |
| GKTCSTSYYKAPGHSTEPGV | < -0.25 |
| TYCSLR | < -0.25 |
| GPKSLSSLVFGWPSVPT | < -0.25 |
| AEGAAKPVNSKTNKRWGLVW | < -0.25 |
| VLTRND | < -0.25 |
| RDQRLGYGITLRCRLVLDDW | < -0.25 |
| LYWGAILDASRLLKTLPLST | < -0.25 |
| SRWLAPVKLPTGTNGQVRLD | < -0.25 |
| CNMSGTS | < -0.25 |
| FDLPVTLNDFVQNNGGGART | < -0.25 |
| TNRVDPPEGPKRRRHSR | -0.243 |
| PEMFCTVCCTLDRYNARKIT | < -0.25 |
| LNDPRGTLSF | < -0.25 |
| SRKMLKQVRASRCVDGV | < -0.25 |
| KQDSTSSVSAKMTAQRCIGL | < -0.25 |
| LRTVVICF | < -0.25 |
| SSSANRTG | < -0.25 |
| PASH | -0.245 |
| LSDLVYLGNYAWCAHGPQRP | < -0.25 |
| AVCPNRL | < -0.25 |
| LQIYSRPDSRIVPNGLVMRL | < -0.25 |
| FLRLVSALA | < -0.25 |
| RQMPRGERGFMNLTWSASER | -0.245 |
| RYRVGLPIRYSADAIGRPDV | < -0.25 |
| PYTWVIRGLPPIGARIPDSV | < -0.25 |
| LTLHEGSTRGSL | < -0.25 |
| GVVL | < -0.25 |
| LKDTRTPCQG | < -0.25 |
| HVVSCVLLIPVKSFPPLGHL | < -0.25 |
| GNL | < -0.25 |
| RTPLSQY | < -0.25 |

Additional entries follow.

| Substance | growth estimate |
| --- | --- |
| GDTYSRGRTECA | < -0.25 |
| ETVNGSTIIWVC | < -0.25 |
| QRRFSCI | < -0.25 |
| VQRLGDTLVNPGLLRYARTG | < -0.25 |
| YALGDEGQTCFGCEGYTSSP | < -0.25 |
| DKVRQPGT | < -0.25 |
| TTLLLASSLCHRAEWDRAVG | < -0.25 |
| AGSACTHKGVLVDQKRTEAA | < -0.25 |
| LVREYSGRYLSESVVDGVSW | < -0.25 |
| PFPIVFRCCCLTMRHLHFWQ | -0.207 |
| SYK | < -0.25 |
| VTEVTVKRVS | < -0.25 |
| IPW | -0.245 |
| PQATGL | < -0.25 |
| PVVRPRQMWSGRLYGPATRY | < -0.25 |
| RLALP | < -0.25 |
| CRLLP | < -0.25 |
| VTTCPVAGPKPERPAAL | < -0.25 |
| ETVSQYMNSFEALKV | < -0.25 |
| YSGLRRYWAEILGCDSLVET | < -0.25 |
| RMVSQWTARKQRKLL | < -0.25 |
| TLWESRGVI | < -0.25 |
| PGYRRLKMSSVDTP | < -0.25 |
| PTWVCMCKAIHMNTHRELAV | < -0.25 |
| LSIGLV | < -0.25 |
| PTVNGHGTRGGLHYGDIGGS | < -0.25 |

| Substance | growth estimate |
| --- | --- |
| YSMG | -0.246 |
| HHNSASTLITLKT | < -0.25 |
| RPDNCDTSASCLTVG | < -0.25 |
| STFSPPGIREWQNYHLVPGS | < -0.25 |
| NGLRAVSVLDILTGASPRLP | < -0.25 |
| ISEKTKRSELMAVTNERQVE | < -0.25 |
| LYE | < -0.25 |
| LFHLVLVDCRWAYSS | < -0.25 |
| CCEESFAQL | < -0.25 |
| LIGSSVRAS | < -0.25 |
| PTRNHQGWHYVAGSVIGS | < -0.25 |
| ELSTLGRMSRFESGAIMTFD | < -0.25 |
| MES | < -0.25 |
| MYPEPLLYV | -0.246 |
| PVGVH | < -0.25 |
| GSRASTRRCVWHRTQQPCTR | < -0.25 |
| SLVGNGALGVSKLSLRSAVH | < -0.25 |
| LVTTAGALSLPSYLRVSLAG | < -0.25 |
| IPVLRLARKRL | < -0.25 |
| AAWSKYPAAP | < -0.25 |
| TPSIKREAIA | < -0.25 |
| EVSVCEGQSGLNYGIYAPGA | < -0.25 |
